Binding data for 1 molecule are collected here from article PMC5752956.

No constants are given. Whether binding was seen depends on the method and setting. Binding seen in cells or lysates may run through a third protein.

In this test the target is EGFP-STΔ95–111 (Merkel cell polyomavirus). As to the kind of experiment: co-IP; lysates of HEK-293 cells transfected for 24 h with EGFP-tagged ST constructs incubated with GFP-TRAP agarose beads; pulldowns immunoblotted with PP2A Aβ- and PP4C-specific antibodies (endogenous proteins). In general terms: Immunoblotting shows a protein as a band on a membrane.

B1: catalytic subunit of protein phosphatase 4 (PP4C) (enzyme, UniProt P60510 1-307)
chain: MAEISDLDRQIEQLRRCELIKESEVKALCAKAREILVEESNVQRVDSPVTVCGDIHGQFYDLKELFRVGGDVPETNYLFMGDFVDRGFYSVETFLLLLALKVRYPDRITLIRGNHESRQITQVYGFYDECLRKYGSVTVWRYCTEIFDYLSLSAIIDGKIFCVHGGLSPSIQTLDQIRTIDRKQEVPHDGPMCDLLWSDPEDTTGWGVSPRGAGYLFGSDVVAQFNAANDIDMICRAHQLVMEGYKWHFNETVLTVWSAPNYCYRCGNVAAILELDEHLQKDFIIFEAAPQETRGIPSKKPVADYFL
Regarding B1, the binding result is “no binding”.
